Data on 1 substance can be found in paper PMC13575168.

Sequences of proteins named here, by UniProt entry; tags and fusion partners are left off.
UniProt P0DTC3: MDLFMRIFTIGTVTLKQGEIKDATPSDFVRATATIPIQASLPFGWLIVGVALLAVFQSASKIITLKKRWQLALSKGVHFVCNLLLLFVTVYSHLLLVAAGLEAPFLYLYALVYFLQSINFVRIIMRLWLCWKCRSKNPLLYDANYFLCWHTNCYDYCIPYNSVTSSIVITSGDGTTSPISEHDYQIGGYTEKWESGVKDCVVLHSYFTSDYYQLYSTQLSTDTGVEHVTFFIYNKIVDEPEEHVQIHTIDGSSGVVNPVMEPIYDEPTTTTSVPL

Results are given in words; binding and its absence hold for the method and conditions named. In cells and extracts the contact can be indirect. These calls come from enrichment with a bait or labelling near it, and not all partners need be listed. Sequences can lack the tags named with a protein.

The assay has as its target T1, CLCC1-TurboID fusion protein (human) (UniProt Q96S66).
T1 sequence: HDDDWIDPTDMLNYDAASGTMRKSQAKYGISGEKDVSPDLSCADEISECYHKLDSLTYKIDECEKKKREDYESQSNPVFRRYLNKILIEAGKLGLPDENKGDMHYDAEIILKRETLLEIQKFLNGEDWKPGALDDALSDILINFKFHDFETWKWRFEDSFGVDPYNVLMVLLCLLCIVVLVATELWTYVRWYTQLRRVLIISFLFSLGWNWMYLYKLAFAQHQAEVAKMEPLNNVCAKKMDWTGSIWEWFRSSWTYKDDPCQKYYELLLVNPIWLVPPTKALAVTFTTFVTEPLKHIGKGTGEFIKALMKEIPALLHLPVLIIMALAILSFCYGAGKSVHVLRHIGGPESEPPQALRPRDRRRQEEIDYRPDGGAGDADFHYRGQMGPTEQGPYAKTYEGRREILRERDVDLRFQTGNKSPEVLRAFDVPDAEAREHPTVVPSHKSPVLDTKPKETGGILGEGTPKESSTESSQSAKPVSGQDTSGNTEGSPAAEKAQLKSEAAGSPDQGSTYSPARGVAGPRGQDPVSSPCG
The assay is described as follows: proximity labelling.

As to “FLAG-tagged SARS-CoV-2 ORF3a (from UniProt P0DTC3 1-275)”, the binding entry is listed as “binds”.
